In US20260015339A1, “CALIX[4]ARENES WITH HIGH ANTICANCER ACTIVITY” (UNIVERSITE GRENOBLE ALPES, priority 2023, published 2026):

Assay: Deliverability to liposomes from a solution in DMSO
Conditions: to liposomes from a solution in DMSO versus pre-incorporation, 1:1000, F/F0 after 600 s

SMILES | Deliverability
CCCOc1c2cccc1Cc1cccc(c1OCc1nccn1C)Cc1cccc(c1OCCC)Cc1cccc(c1OCc1nccn1C)C2 [(2)] | Yes (means that a significant decrease of the fluorescence of encapsulated BCS was observed upon addition of Cu^+ to the liposomes when the calix[4]arene was added to the liposomes from a solution in DMSO (F/F0<0.65 after 600 s))
C=CCOc1c2cccc1Cc1cccc(c1OCc1nccn1C)Cc1cccc(c1OCC=C)Cc1cccc(c1OCc1nccn1C)C2 [(3)] | Yes (means that a significant decrease of the fluorescence of encapsulated BCS was observed upon addition of Cu^+ to the liposomes when the calix[4]arene was added to the liposomes from a solution in DMSO (F/F0<0.65 after 600 s))
CCOC(=O)COc1c2cccc1Cc1cccc(c1OCc1nccn1C)Cc1cccc(c1OCC(=O)OCC)Cc1cccc(c1OCc1nccn1C)C2 [(4)] | Yes (means that a significant decrease of the fluorescence of encapsulated BCS was observed upon addition of Cu^+ to the liposomes when the calix[4]arene was added to the liposomes from a solution in DMSO (F/F0<0.65 after 600 s))
COc1c2cccc1Cc1cccc(c1OCc1nccn1C)Cc1cccc(c1OC)Cc1cccc(c1OCc1nccn1C)C2 [(5)] | Yes (means that a significant decrease of the fluorescence of encapsulated BCS was observed upon addition of Cu^+ to the liposomes when the calix[4]arene was added to the liposomes from a solution in DMSO (F/F0<0.65 after 600 s))
Cn1ccnc1COc1c2cccc1Cc1cccc(c1O)Cc1cccc(c1OCc1nccn1C)Cc1cccc(c1O)C2 [(6)] | Yes (means that a significant decrease of the fluorescence of encapsulated BCS was observed upon addition of Cu^+ to the liposomes when the calix[4]arene was added to the liposomes from a solution in DMSO (F/F0<0.65 after 600 s))
CCCOc1c2cc([N+](=O)[O-])cc1Cc1cccc(c1OCc1nccn1C)Cc1cc([N+](=O)[O-])cc(c1OCCC)Cc1cccc(c1OCc1nccn1C)C2 [(7)] | Yes (means that a significant decrease of the fluorescence of encapsulated BCS was observed upon addition of Cu^+ to the liposomes when the calix[4]arene was added to the liposomes from a solution in DMSO (F/F0<0.65 after 600 s))
CCCOc1c2cccc1Cc1cccc(c1OCc1nc3ccccc3n1C)Cc1cccc(c1OCCC)Cc1cccc(c1OCc1nc3ccccc3n1C)C2 [(8)] | Yes (means that a significant decrease of the fluorescence of encapsulated BCS was observed upon addition of Cu^+ to the liposomes when the calix[4]arene was added to the liposomes from a solution in DMSO (F/F0<0.65 after 600 s))
CCCOc1c2cccc1Cc1cccc(c1OCc1ncco1)Cc1cccc(c1OCCC)Cc1cccc(c1OCc1ncco1)C2 [(9)] | Medium (means that the final level reached was much lower upon pre-incorporation (F/F0<0.4 after 600 s) than when adding the calix[4]arene to the liposomes from a solution in DMSO (F/F0=0.4-0.65 after 600 s))
CCCOc1c2cccc1Cc1cccc(c1OCc1nccs1)Cc1cccc(c1OCCC)Cc1cccc(c1OCc1nccs1)C2 [(10)] | Medium (means that the final level reached was much lower upon pre-incorporation (F/F0<0.4 after 600 s) than when adding the calix[4]arene to the liposomes from a solution in DMSO (F/F0=0.4-0.65 after 600 s))
CCCOc1c2cccc1Cc1cccc(c1OCc1ccccn1)Cc1cccc(c1OCCC)Cc1cccc(c1OCc1ccccn1)C2 [(38)] | Yes (means that a significant decrease of the fluorescence of encapsulated BCS was observed upon addition of Cu^+ to the liposomes when the calix[4]arene was added to the liposomes from a solution in DMSO (F/F0<0.65 after 600 s))

Some compounds share one wording; it may come from a single statement.
